The other results are listed elsewhere or left out. Further columns of the screen follow, without active or inactive calls. The list favours compounds with an active or inconclusive main result. Potencies come from curve fits of mixed quality, noted in brackets.

This experiment is described as follows: qHTS Assay to Find Inhibitors of Chronic Active B-Cell Receptor Signaling. Conditions: ABC-DLBCL IkBa-CBG/CBR reporter, luminescence ratio (green luciferase fused to IkBa over red control in TMD8 lymphoma cells), 4 h. Summed up: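 Compounds up to 46 uM were incubated four hours with TMD8 cells whose green CBG68 luciferase is fused to IkappaBalpha; red CBR luminescence normalised the signal, and concentration-effect curves were fitted to fusion, red and ratio data.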

Setting [1] is: measured here: CBR red luminescence, cell number.
Setting [2] is: measured here: IkBa-CBG green luminescence.

With `C=CCn1c(CNC(=O)c2ccco2)nnc1SCC(=O)c1ccc(F)cc1`, the AC50 (usually the concentration giving half of the maximal activity seen) under setting [1] is 12.6 µM [falling, partial curve, poor fit].
In the case of `CNC(=O)COC(=O)c1c2c(nc3ccccc13)CCC2`, the AC50 under setting [1] is 3.55 µM [falling, partial curve, poor fit] and the AC50 under setting [2] is 5.62 µM [rising, full curve, poor fit].
In the case of `O=C(N/N=C/c1c[nH]c2ccccc12)C1COc2ccccc2O1` (configuration not stated), the AC50 under setting [1] was 23.1 µM [rising, partial curve, poor fit].
As to `N#CC(C(=O)Nc1ccccc1)=C1Nc2ccccc2N1`, under setting [1], the AC50 was 16.4 µM [falling, single point].
Consider `CCOc1ccc2nc(SCC3CC3(Cl)Cl)[nH]c2c1` (configuration not stated), for which the AC50 under setting [1] was 3.16 µM [rising, partial curve, poor fit].
With `COc1ccc(N2CCN(C(=O)c3ccc4c(c3)N(Cc3cccc(Cl)c3)C(=O)c3ccccc3S4(=O)=O)CC2)cc1`, under setting [1], the AC50 was 3.16 µM [rising, full curve].
Same read-out and setting: then `CCc1cc(C(=O)OC)c(N2C(=O)C3C4C=CC(C4)C3C2=O)s1` (configuration not stated), with 18.4 µM [rising, single point]; and `CCOC(=O)N1CCN(C(=O)Cc2cccc3ccccc23)CC1`, with 6.31 µM [rising, single point].
Regarding `Cc1ccc(NC(=O)c2ccn(C)n2)c(Br)c1`, the AC50 under setting [1] was 9.2 µM [rising, partial curve, poor fit].
For `CCCN(CCC)CCNC(=O)C(NS(=O)(=O)c1ccc2c(c1)CCC(=O)N2)c1ccccc1` (configuration not stated), the AC50 under setting [1] is 3.66 µM [rising, single point].
With `Cc1ccnn1-c1ccc(C(=O)OCC(=O)Nc2ccc(F)cc2)cc1`, the AC50 under setting [1] is 29.1 µM [rising, single point].
Take `Cc1ccc(OS(=O)(=O)c2c(C)nn(C)c2Cl)c(C)c1`: the AC50 under setting [1] was 14.1 µM [rising, partial curve, poor fit].
For the compound `C/C=C/c1ccccc1OCc1ccc(C(=O)O)o1`, the AC50 under setting [1] is 29.1 µM [falling, single point].
Consider `CN1C(=O)/C(=C/c2ccccc2OCc2cccc(F)c2)N(C)C1=S`, for which the AC50 under setting [1] was 20.6 µM [falling, partial curve, poor fit].
On to `COc1ccc(OCCOC(=O)c2ccc(F)c(S(=O)(=O)N3CCOCC3)c2)cc1`, for which the AC50 under setting [1] was 0.58 µM [rising, full curve, poor fit].
The same measure, in the same setting: as for `NC(=O)c1ccc(Nc2nnc(-c3ccc(O)cc3)c3ccccc23)cc1`, the figure is 11.2 µM [falling, partial curve].
On the same count and under the same terms, then `COc1ccc(/C=N/NC(=O)c2ccccc2Cl)cc1CSc1nc2ccccc2s1`, with 11.6 µM [falling, partial curve].
Take `CCC1CCCN1Cn1cnc2c([nH]c3ccccc32)c1=O` (configuration not stated): the AC50 under setting [1] was 2.51 µM [falling, partial curve, poor fit].
As to `CCCCc1ccc(-c2nc(NC(=O)C3C4CCC(O4)C3C(=O)O)sc2C)cc1` (configuration not stated), under setting [1], the AC50 was 11.2 µM [rising, partial curve].
Turning to `Cc1ccc(-n2nc(C)c3c2OC(N)=C(C#N)C3c2ccc(C)o2)cc1` (configuration not stated), the AC50 under setting [1] is 18.4 µM [falling, partial curve, poor fit].
Same read-out and setting: then `COc1cc(SC)ccc1C(=O)OCC(=O)NCCNC(=O)COC(=O)c1ccc(SC)cc1OC`, with 3.16 µM [falling, full curve]; and `Cc1cccc(-c2noc(CCC(=O)NCc3ccco3)n2)c1`, with 20.6 µM [rising, single point].
In the case of `O=C(Oc1c(CN2CCOCC2)cc(Cl)c2cccnc12)c1ccccc1Br`, the half-maximal activity concentration (AC50) under setting [1] was 2 µM [rising, full curve, poor fit] and the half-maximal activity concentration (AC50) under setting [2] was 2 µM [falling, partial curve, poor fit].
Regarding `Cc1c(/C=N/Nc2ccc([N+](=O)[O-])cn2)c2ccccc2n1Cc1ccccc1`, the AC50 under setting [1] was 10 µM [rising, partial curve, poor fit].
For the compound `CCn1c(SCC(=O)c2c[nH]c3ccccc23)nc2cc(S(=O)(=O)N3CCOCC3)ccc21`, under setting [1], the AC50 was 18.4 µM [falling, single point].
On to `O=C(CCCN1C(=O)/C(=C/c2ccccc2)SC1=S)Nc1ccccc1O`, for which the AC50 under setting [1] was 5.01 µM [falling, partial curve, poor fit].
Take `CC1=NN(c2ccccc2)C(=O)/C1=C/c1c(O)n(-c2ccc(F)c(Cl)c2)[nH]c1=O`: the AC50 under setting [1] was 16.4 µM [falling, single point].
Consider `CN1CCN(C(=O)c2cc3c(s2)-c2ccccc2S(=O)(=O)C3)CC1`, for which, under setting [1], the AC50 was 3.26 µM [falling, single point].
Take `Cc1cc(NC(C)c2ccccc2)n2ncc(-c3ccccc3)c2n1` (configuration not stated): the AC50 under setting [1] is 7.94 µM [falling, single point].
Regarding `CN(C)S(=O)(=O)c1ccc(NC(=O)N2CCN(c3cccc(C(F)(F)F)c3)CC2)cc1`, under setting [1], the half-maximal activity concentration (AC50) is 29.1 µM [falling, single point].
Regarding `Cc1ccccc1NC(=O)Cn1c(=O)sc2ccccc21`, the AC50 under setting [1] is 35.5 µM [rising, single point].
Turning to `N#C/C(=C\c1ccccc1O)C(=O)Nc1cccnc1`, under setting [1], the half-maximal activity concentration (AC50) was 10 µM [falling, partial curve, poor fit].
Still for that read-out and setting: as for `CCOC(=O)c1ccc(NC(=O)Nc2cc(C)cc(C)n2)cc1`, the figure is 0.112 µM [falling, full curve, poor fit]; as for `CCCc1nnc(NC(=O)CCC(=O)N2CCN(S(=O)(=O)c3ccc(C)cc3)CC2)s1`, 0.562 µM [rising, full curve, poor fit].
Regarding `CCC(=O)OCc1c(C(F)(F)F)nn(C)c1Sc1ccc(Cl)cc1`, the AC50 under setting [1] was 0.708 µM [rising, full curve, poor fit].
On to `CC(=O)COc1ccccc1OC(=O)c1ccco1`, for which the AC50 under setting [1] is 29.1 µM [rising, single point].
Still for that read-out and setting: then `CC(NC(=O)CCl)c1ccccc1Br` (configuration not stated), with 3.16 µM [falling, partial curve, poor fit].
Regarding `O=C(c1cccnc1)n1nc(-c2ccco2)nc1NCc1cccs1`, the AC50 under setting [1] is 35.5 µM [falling, single point].
On to `O=C(Nc1ccc(-c2cnco2)cc1)c1ccccc1`, for which the AC50 under setting [1] is 2 µM [falling, full curve, poor fit].
Same read-out and setting: as for `C=CCN1CC(C(=O)N2CCC(Cc3ccc(Cl)cc3)(C(=O)OCC)CC2)CC1=O` (configuration not stated), the figure is 3.55 µM [rising, partial curve, poor fit].

The record behind these values is PubChem BioAssay AID493014 (National Center for Advancing Translational Sciences (NCATS), 2011).
